Experimental data: PubChem BioAssay AID1259308 (NCATS, 2017)
Shown is an unselected part of about 59,000 reagents tested. Over the whole deposit, about 1,510 (2.6%) got an active call. 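Calls use total luciferase alone and ignore viability, so some active siRNAs may act by altering cell number.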 Unmarked entries are inactive. Not all columns of the deposit are shown.

Test: 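Knock-downs that increase output of a recombinant reporter protein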 (primary screen)
Cell system: human HEK293 embryonic kidney cells stably expressing firefly luciferase (HEK-CMV-Luc2-Hygro)
Reagents: single siRNA against human genes, 0.8 pmol siRNA per well
Timing: 72 h
Measured: 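Reporter luminescence and viable-cell signal on separate replicate plates, given as percent of non-targeting control and median/MAD z-scores, plus per-cell luciferase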
Scale: total luciferase, z-score and total luciferase, % of control: higher = more reporter protein produced
Rule for the call: 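Active when the median/MAD z-score for overall luciferase is greater than 3; a gene was taken forward for validation with new siRNAs if at least two of its three siRNAs passed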
Meaning of the calls: active = raised luciferase; inactive = no rise

Silencing of HDAC3 (histone deacetylase 3) [SID160720947] gave: total luciferase, z-score 1.73; total luciferase, % of control 116.
HDAC3 (histone deacetylase 3) [SID160720948] showed total luciferase, z-score -2.41; total luciferase, % of control 33.9.
With knock-down of HDAC3 (histone deacetylase 3) [SID160720949], the screen gave total luciferase, z-score -0.635; total luciferase, % of control 69.3.
CEP192 (centrosomal protein 192) [SID160733583] gave total luciferase, z-score -0.229; total luciferase, % of control 77.3.
CEP192 (centrosomal protein 192) [SID160743001] gave total luciferase, z-score -1.43; total luciferase, % of control 53.5.
Depletion of CEP192 (centrosomal protein 192) [SID160743002] resulted in: total luciferase, z-score -0.987; total luciferase, % of control 62.3.
After knock-down of TCEAL9 (transcription elongation factor A like 9) [SID160740274], the screen gave total luciferase, z-score -1.07; total luciferase, % of control 60.5.
For TCEAL9 (transcription elongation factor A like 9) [SID160740275], the values are total luciferase, z-score 0.308; total luciferase, % of control 88.
Silencing of TCEAL9 (transcription elongation factor A like 9) [SID160740276] resulted in: total luciferase, z-score 0.831; total luciferase, % of control 98.4.
After knock-down of HNRNPDL (heterogeneous nuclear ribonucleoprotein D like) [SID160723615], the screen gave total luciferase, z-score 4.58 (active); total luciferase, % of control 173.
Against HNRNPDL (heterogeneous nuclear ribonucleoprotein D like) [SID160723616] the deposit lists total luciferase, z-score -0.541; total luciferase, % of control 71.1.
Against HNRNPDL (heterogeneous nuclear ribonucleoprotein D like) [SID160723617], the values are total luciferase, z-score 3.55 (active); total luciferase, % of control 152.
For DPPA2 (developmental pluripotency associated 2) [SID160759162] the deposit lists total luciferase, z-score 0.704; total luciferase, % of control 95.9.
Silencing of DPPA2 (developmental pluripotency associated 2) [SID160759163] gave: total luciferase, z-score 0.31; total luciferase, % of control 88.
Knock-down of DPPA2 (developmental pluripotency associated 2) [SID160759164] came out at: total luciferase, z-score -1.54; total luciferase, % of control 51.2.
Knock-down of IBA57 (iron-sulfur cluster assembly factor IBA57) [SID160732649] gave: total luciferase, z-score 0.266; total luciferase, % of control 87.2.
Against IBA57 (iron-sulfur cluster assembly factor IBA57) [SID160760830], the values are total luciferase, z-score -0.227; total luciferase, % of control 77.4.
IBA57 (iron-sulfur cluster assembly factor IBA57) [SID160760831] gave total luciferase, z-score -0.797; total luciferase, % of control 66.

Part of the list above, set out differently.
| target gene | PubChem SID | total luciferase, z-score | total luciferase, % of control |
| --- | --- | --- | --- |
| DPPA2 (developmental pluripotency associated 2) | SID160759162 | 0.704 | 95.9 |
| DPPA2 (developmental pluripotency associated 2) | SID160759163 | 0.31 | 88 |
| DPPA2 (developmental pluripotency associated 2) | SID160759164 | -1.54 | 51.2 |
| IBA57 (iron-sulfur cluster assembly factor IBA57) | SID160732649 | 0.266 | 87.2 |
| IBA57 (iron-sulfur cluster assembly factor IBA57) | SID160760830 | -0.227 | 77.4 |
| IBA57 (iron-sulfur cluster assembly factor IBA57) | SID160760831 | -0.797 | 66 |

Next results:
Knock-down of GABPB1 (GA binding protein transcription factor subunit beta 1) [SID160768315] came out at: total luciferase, z-score 0.421; total luciferase, % of control 90.3.
Against GABPB1 (GA binding protein transcription factor subunit beta 1) [SID160768317], the values are total luciferase, z-score -0.0933; total luciferase, % of control 80.
GABPB1 (GA binding protein transcription factor subunit beta 1) [SID160768328] gave total luciferase, z-score 0.358; total luciferase, % of control 89.
LRP2BP (LRP2 binding protein) [SID160744406] showed total luciferase, z-score 0.31; total luciferase, % of control 88.1.
LRP2BP (LRP2 binding protein) [SID160744407] scored total luciferase, z-score -0.573; total luciferase, % of control 70.5.
Knock-down of LRP2BP (LRP2 binding protein) [SID160744408] gave: total luciferase, z-score 0.953; total luciferase, % of control 101.
SUV39H2 (SUV39H2 histone lysine methyltransferase) [SID160749282] showed total luciferase, z-score -1.2; total luciferase, % of control 58.
Knock-down of SUV39H2 (SUV39H2 histone lysine methyltransferase) [SID160749283] gave: total luciferase, z-score -0.96; total luciferase, % of control 62.8.
For SUV39H2 (SUV39H2 histone lysine methyltransferase) [SID160749284] the deposit lists total luciferase, z-score 1.21; total luciferase, % of control 106.
Against NBPF14 (NBPF member 14) [SID160737074], the entry reads total luciferase, z-score -1.44; total luciferase, % of control 53.3.
After knock-down of NBPF14 (NBPF member 14) [SID160737075], the screen gave total luciferase, z-score 1.24; total luciferase, % of control 106.
After knock-down of NBPF14 (NBPF member 14) [SID160737077], the screen gave total luciferase, z-score 0.106; total luciferase, % of control 84.
With knock-down of ZNF731P (zinc finger protein 731, pseudogene) [SID160773180], the screen gave total luciferase, z-score -0.122; total luciferase, % of control 79.5.
With knock-down of ZNF731P (zinc finger protein 731, pseudogene) [SID160773181] the results were total luciferase, z-score 0.554; total luciferase, % of control 92.9.
After knock-down of ZNF731P (zinc finger protein 731, pseudogene) [SID160773182], the screen gave total luciferase, z-score 1.15; total luciferase, % of control 105.
C5orf46 (chromosome 5 open reading frame 46) [SID160766169] showed total luciferase, z-score -0.152; total luciferase, % of control 78.9.
Against C5orf46 (chromosome 5 open reading frame 46) [SID160766170], the values are total luciferase, z-score -1.29; total luciferase, % of control 56.3.
Knock-down of C5orf46 (chromosome 5 open reading frame 46) [SID160766171] came out at: total luciferase, z-score -0.983; total luciferase, % of control 62.3.
SMAP2 (small ArfGAP2) [SID160747879] gave total luciferase, z-score 3.19 (active); total luciferase, % of control 145.
Knock-down of SMAP2 (small ArfGAP2) [SID160747880] came out at: total luciferase, z-score -0.215; total luciferase, % of control 77.6.
SMAP2 (small ArfGAP2) [SID160747881] gave total luciferase, z-score 2.61; total luciferase, % of control 134.
For ZXDC (ZXD family zinc finger C) [SID160748830], the values are total luciferase, z-score -0.223; total luciferase, % of control 77.5.
For ZXDC (ZXD family zinc finger C) [SID160748831], the entry reads total luciferase, z-score 2.02; total luciferase, % of control 122.
Knock-down of ZXDC (ZXD family zinc finger C) [SID160748832] gave: total luciferase, z-score 1.57; total luciferase, % of control 113.
